Laboratory results published in publication PMC9765454.
These are yes or no findings as the source states them, for the method shown. In cells and extracts the contact can be indirect. Some entries that bind do so weakly or less than the wild type.

Biological target: T1, SOCS1 (suppressor of cytokine signaling 1), endogenous in BMDC (mouse (endogenous in BMDC)) (UniProt O35716)
T1 sequence: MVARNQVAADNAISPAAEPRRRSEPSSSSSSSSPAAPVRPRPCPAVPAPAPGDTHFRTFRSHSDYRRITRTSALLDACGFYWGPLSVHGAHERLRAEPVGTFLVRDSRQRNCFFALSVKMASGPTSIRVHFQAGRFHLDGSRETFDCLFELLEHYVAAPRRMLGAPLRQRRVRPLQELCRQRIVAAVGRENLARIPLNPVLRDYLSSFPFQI
Test: co-IP; endogenous; whole-cell lysates of BMDC stimulated with STAg for the indicated times; anti-SOCS1 overnight, then protein A/G agarose beads for 4 h; washed 5 times with low-salt lysis buffer (50 mM HEPES, 150 mM NaCl, 1 mM EDTA, 10% glycerol, 1.5 mM MgCl2, 1% Triton X-100); immunoblot

binding: binds
B1: IRF3 (interferon regulatory factor 3), endogenous in BMDC (protein, UniProt P70671 1-419)
chain: METPKPRILPWLVSQLDLGQLEGVAWLDESRTRFRIPWKHGLRQDAQMADFGIFQAWAEASGAYTPGKDKPDVSTWKRNFRSALNRKEVLRLAADNSKDPYDPHKVYEFVTPGARDFVHLGASPDTNGKSSLPHSQENLPKLFDGLILGPLKDEGSSDLAIVSDPSQQLPSPNVNNFLNPAPQENPLKQLLAEEQWEFEVTAFYRGRQVFQQTLFCPGGLRLVGSTADMTLPWQPVTLPDPEGFLTDKLVKEYVGQVLKGLGNGLALWQAGQCLWAQRLGHSHAFWALGEELLPDSGRGPDGEVHKDKDGAVFDLRPFVADLIAFMEGSGHSPRYTLWFCMGEMWPQDQPWVKRLVMVKVVPTCLKELLEMAREGGASSLKTVDLHISNSQPISLTSDQYKAYLQDLVEDMDFQATGNI
